In patent EP4789728A2 (Serpin Pharma, LLC, dated 2026):
These are yes or no findings as the source states them, for the method shown. Some binding calls cover weakened binding; strength is not graded here.

Protein sequences, listed by entry. Tags and fused reporters are not part of them. Residues count along the entry.
UniProt Q07954, residues 805-1184: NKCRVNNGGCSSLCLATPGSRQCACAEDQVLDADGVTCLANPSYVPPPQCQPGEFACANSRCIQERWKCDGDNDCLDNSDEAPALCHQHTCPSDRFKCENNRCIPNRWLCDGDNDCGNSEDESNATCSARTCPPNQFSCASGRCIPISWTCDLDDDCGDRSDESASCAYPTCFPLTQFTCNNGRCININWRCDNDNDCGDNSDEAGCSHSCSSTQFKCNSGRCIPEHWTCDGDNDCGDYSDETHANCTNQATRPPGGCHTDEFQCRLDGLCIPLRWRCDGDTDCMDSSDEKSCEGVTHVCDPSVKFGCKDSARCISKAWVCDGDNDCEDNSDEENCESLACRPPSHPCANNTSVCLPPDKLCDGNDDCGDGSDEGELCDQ

Target: Recombinant LRP1 (Cluster II) (UniProt Q07954)
Test: ELISA, plate-bound recombinant LRP1 (Cluster II), biotinylated peptide, streptavidin HRP

- binding: binds
Binder: VKFNKPFVFLMIEQNTK (biotinylated in the ELISA of Example 2 (site of biotin not stated)) [SP16 (AAT Core)]
